Experimental data as given in patent US6989435B2, “Compounds and methods to inhibit or augment an inflammatory response” (Cambridge University Technical Services Ltd., priority 1997, dated 2006).
pIC50: −log10 of the molar value. Part of at least one peptide drawing is inferred or uncertain, most often the ends. Positions of bridges follow the written chain, without caps; N, C: chain ends. Non-standard residues stand in square brackets, D forms with d. Residues, ends and D or L forms follow the SMILES beside them. No end group written: not given here. ξ: configuration not given here. ξI = CCC(C)C(N)C(=O)O

What was measured:
[1] = tested on: MCP-1 induced THP-1 migration; assay: Trans-well THP-1 migration assay, MCP-1 as chemoattractant; format: cell-based, human; details: for Extent of inhibition of THP-1 migration at 100 μM, MCP-1: Table 4(b), 100 μM peptide, n.s. = no statistically significant inhibition, %
Procedure: (§1) FIG. 1 is a schematic of the trans-well migration assay. In most experiments, the peptide (wavy line) is added to the upper well with about 50,000 cells (O). The upper and lower wells are separated by a 5 μm or 8 μm pore size PVP-free membrane (- - - -). Chemokine (●) is added to the lower well. After 4 hours, the number of cells that have migrated through the membrane are measured (◯ in lower well).
To determine whether an agent inhibits a chemokine-induced activity, such as macrophage recruitment, varying amounts of the agent are mixed with cells in the presence of a known chemoattractant. For example, a range of known concentrations of an agent, e.g., a chemokine peptide, is incubated with a defined number (e.g., 10^4-10^6) of human THP-1 monocyte cells in individual wells of the top compartment of a trans-well plate. Chemokine (such as MCP-1, MIP1α, IL8 or SDF-1α), at a concentration known to cause significant migration of THP-1 cells in the trans-well migration assay, is placed in the lower compartment (FIG. 1). Cells are then incubated at 37° C. for a period sufficient to allow migration, e.g., 4 hours. After incubation, the cells are gently removed from the top of the filter with a pipette, 20 μl of 20 mM EDTA in simple PBS is added into each top well, and incubated for 20 minutes at 4° C. The filter is carefully flushed with media using a gentle flow, and removed. A standard curve consisting of a two-fold dilution series of THP-1 cells (in 29 μl) is prepared to accurately quantify the number of cells that have migrated. Migrated cells are stained with 3 μl of MTT stock dye solution which is added directly into each well (5 mg/ml in RPMI-1640 without phenol red, Sigma Chemical Co.) and incubated at 37° C. for 4 hours. The media is carefully aspirated from each well, and the converted dye is solubilized by 20 μl of DMSO. Absorbance of converted dye is measured at a wavelength of 595 nm using an ELISA plate reader. The number of migrated cells in each well is then determined by interpolation of the standard curve (see also Imai et al., J. Biol. Chem., 272, 15036 (1997)). […]

[2] = tested on: MIP1α induced THP-1 migration; assay: Trans-well THP-1 migration assay, MIP1α as chemoattractant; format: cell-based, human; details: Table 4(b); 100 μM peptide; n.s. = no statistically significant inhibition
Procedure: as §1
To determine whether an agent inhibits a chemokine-induced activity, such as macrophage recruitment, varying amounts of the agent are mixed with cells in the presence of a known chemoattractant. For example, a range of known concentrations of an agent, e.g., a chemokine peptide, is incubated with a defined number (e.g., 10^4-10^6) of human THP-1 monocyte cells in individual wells of the top compartment of a trans-well plate. […] A standard curve consisting of a two-fold dilution series of THP-1 cells (in 29 μl) is prepared to accurately quantify the number of cells that have migrated. […] Absorbance of converted dye is measured at a wavelength of 595 nm using an ELISA plate reader. The number of migrated cells in each well is then determined by interpolation of the standard curve (see also Imai et al., J. Biol. Chem., 272, 15036 (1997)). […]

[3] = tested on: MIP1α induced human monocyte migration; assay: Human monocyte migration, MIP1α induced; format: cell-based; details: Table 4(c); 100 μM peptide; n.s. = no statistically significant inhibition

## CCC(C)C1NC(=O)[C@@H](CCC(N)=O)NC(=O)[C@H](N)CSSC[C@H](C(=O)O)NC(=O)[C@@H](CC(C)C)NC(=O)[C@@H](CC(=O)O)NC(=O)[C@H]2CCCN2C(=O)[C@@H](CCCCN)NC(=O)[C@@H](CCC(N)=O)NC(=O)[C@@H](CCCCN)NC(=O)[C@@H](Cc2c[nH]c3ccccc23)NC1=O (stereo partly drawn) [CRD-Cys13Leu4ile11peptide 3] (H-[dC][dQ][ξI][dW][dK][dQ][dK][dP][dD][dL][dC]-OH; disulfide 1-11; N-terminus and C-terminus assumed)
[1]; derivatives of leu4ile11peptide 3, read-out: MCP-1 inhibitory activity in the THP-1 transwell assay
  pIC50: 7.00 to 7.30

## SYRRITSSKCPKEAV [Peptide 2]
[1]
  Extent of inhibition of THP-1 migration at 100 μM, MCP-1: n.s.
[2]
  Extent of inhibition of THP-1 migration at 100 μM, MIP1α: n.s.
[3]
  Extent of inhibition of human monocyte migration at 100 μM, MIP1α: n.s.

## CC[C@H](C)[C@H](NC(=O)[C@H](C)NC(=O)[C@H](CC(=O)O)NC(=O)[C@@H]1CCCN1C(=O)[C@H](CCC(N)=O)NC(=O)[C@H](C)N)C(=O)N[C@@H](CC(N)=O)C(=O)N[C@@H](C)C(=O)N1CCC[C@H]1C(=O)N[C@H](C(=O)N[C@H](C(=O)N[C@@H](CS)C(=O)N[C@@H](CS)C(=O)O)[C@@H](C)O)C(C)C [Peptide 1] (H-AQPDAINAPVTCC-OH)
[1]
  Extent of inhibition of THP-1 migration at 100 μM, MCP-1: n.s.^b
[2]
  Extent of inhibition of THP-1 migration at 100 μM, MIP1α: n.s.^b
[3]
  Extent of inhibition of human monocyte migration at 100 μM, MIP1α: n.s.
